# Results deposited as PubChem BioAssay AID504784 (Drosophila RNAi Screening Center, 2011).
# Aim: 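Search for regulators of lipid droplet storage in oleate-fed fly cells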 (primary screen)
# Cells: Drosophila Kc167 embryonic cells
# Reagents: long dsRNA against Drosophila genes, about 250 ng dsRNA per well
# Timing: 4 days
# Treatment: cells fed 400 µM oleic acid bound to BSA
# Measurement: 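Microscope images give a droplet-to-nucleus area ratio, taken as log and converted to a screen-wide B-score; higher values mean greater lipid storage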
# Direction: droplet/nuclear area B-score: higher = more stored lipid (overstorage)
# The deposit covers about 17,000 reagents; this is a random part of those with a known target gene and a result. 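Each column is one replicate's B-score; the combined score over replicates was not deposited, so single values may mislead.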 Names joined by + are all predicted targets of the reagent. No sequences are given here.
predicted target,DRSC id,"droplet/nuclear area B-score, replicate 1","droplet/nuclear area B-score, replicate 2","droplet/nuclear area B-score, replicate 3"
beat-IIIa (beaten path IIIa),DRSC01577,-1.56,-0.561,
beat-IIIa (beaten path IIIa),DRSC02178,0.51,0.506,
Rpn5 (Regulatory particle non-ATPase 5),DRSC12367,-0.0658,-0.0268,
dimm (dimmed),DRSC03100,-0.0172,0.811,
ais (aramis),DRSC10523,0.67,-0.65,-0.315
aay (astray),DRSC11320,0.0442,-0.1,
CG32147,DRSC09346,0.13,-0.939,
CG14297,DRSC14776,-1.44,0.813,
dpn (deadpan),DRSC07605,-0.282,0.98,
NimC4 (Nimrod C4),DRSC01945,0.974,0.0909,
RhoGAPp190 (Rho GTPase activating protein p190),DRSC20097,-1.28,-5.99,
RhoGAPp190 (Rho GTPase activating protein p190),DRSC20099,-0.00563,-0.483,
CG15283,DRSC01980,-0.933,-0.0769,
CG8319,DRSC16407,2.3,0.269,
CG16824,DRSC02525,0.746,0.659,
Socs16D (Suppressor of Cytokine Signaling at 16D),DRSC20087,-0.886,-0.191,
Socs16D (Suppressor of Cytokine Signaling at 16D),DRSC23165,-1.39,-0.00455,
CR18166 (pseudo),DRSC17260,-0.00327,1.02,
CR18166 (pseudo),DRSC18147,-2.63,-1.88,
CG9861,DRSC04576,-1.56,0.797,
CG30116,DRSC05935,0.325,,
CG30116,DRSC06685,0.995,-1.02,
CG3589,DRSC04392,-0.995,0.183,
lectin-24Db,DRSC00553,-0.45,0.0333,
comm (commissureless),DRSC11336,0.527,-1.43,
CG14505,DRSC06476,-0.031,0.249,
Act5C (Actin 5C),DRSC17723,-1.72,-2.76,
kipf (kipferl),DRSC15446,-0.196,0.00634,1.11
kipf (kipferl),DRSC22871,-1.17,-1.22,
wit (wishful thinking),DRSC08741,0.11,-0.788,
lectin-28C,DRSC03010,0.0285,0.85,
fos28F (retired record),DRSC03391,-2.44,-0.913,
CG32181,DRSC22635,2.03,0.0666,
rno (rhinoceros),DRSC08584,0.914,1.09,
CG2100,DRSC12303,-0.105,-0.519,
Pgd (Phosphogluconate dehydrogenase),DRSC18697,-1.79,,
srl (spargel),DRSC12340,-0.435,-0.482,
CG9372,DRSC11068,1.75,0.996,
flfl (falafel),DRSC16474,-7.48,-3.9,
CG10031,DRSC00286,-1.38,0.243,
CG15480,DRSC02490,-0.853,0.451,
CG11626,DRSC14336,-0.286,-1.71,
CG10301,DRSC14226,-0.0929,-0.0197,

Next part, starting with the last 2 of the part before.
predicted target,DRSC id,"droplet/nuclear area B-score, replicate 1","droplet/nuclear area B-score, replicate 2","droplet/nuclear area B-score, replicate 3"
CG11626,DRSC14336,-0.286,-1.71,
CG10301,DRSC14226,-0.0929,-0.0197,
hpo (hippo),DRSC06065,3.51,-0.171,
dor (deep orange),DRSC18765,1.32,,
Xpd (Xeroderma pigmentosum D),DRSC04666,-1.15,1.37,
CG15814,DRSC19730,0.253,0.0117,
CG13360,DRSC18536,3.26,-0.00339,-0.956
ERp60 (Endoplasmic reticulum p60),DRSC07309,-0.572,1.28,
RhoGEF3 (retired record),DRSC08266,-0.369,3.46,0.189
RhoGEF3 (retired record),DRSC08353,0.837,-0.196,
pbl (pebble),DRSC11381,4.99,0.456,
Nse1 (Non-SMC element 1),DRSC02147,-1.02,-0.013,
Drsl2 (Drosomycin-like 2),DRSC08160,0.627,-0.218,
Spec2 (retired record),DRSC12258,-0.134,0.328,
Spec2 (retired record),DRSC22886,2.76,-2.94,
pxb,DRSC13110,-1.54,-0.263,
pxb,DRSC14996,-6.13,-6.25,
pxb,DRSC14997,0.223,-0.847,
pxb,DRSC22225,-1.28,-1.74,
CG6432,DRSC16039,1.3,-0.525,
sra (sarah),DRSC17015,1.06,0.081,
His-Psi:CR31616 + His-Psi:CR31615,DRSC03760,0.486,-0.173,
CG15213,DRSC10213,1.25,0.844,
"E(spl)mgamma-HLH (Enhancer of split mgamma, helix-loop-helix)",DRSC16699,-1.44,2.17,
CG5273,DRSC18612,-0.174,-0.903,
Sfp93F (Seminal fluid protein 93F),DRSC13505,-2.19,-3.76,
AttC (Attacin-C),DRSC06886,-0.57,-0.00252,
Vha36-2 (Vacuolar H[+] ATPase 36kD subunit 2),DRSC06294,,1.3,
PGRP-SA (Peptidoglycan recognition protein SA),DRSC19420,-0.169,-0.013,-0.62
CG1840,DRSC19806,0.345,-1.77,0.0851
Mat1 (Menage a trois 1),DRSC07465,1.26,0.444,
CG14572,DRSC11733,-2.19,0.278,
nxf4 (nuclear export factor 4),DRSC12548,2.94,0.0682,
Pss (Phosphatidylserine synthase),DRSC11757,3.06,2.21,
CG11756,DRSC19424,-0.148,-0.988,0.0182
Eig71Ej,DRSC11157,0.0774,0.582,
l(3)72Dn (lethal (3) 72Dn),DRSC10468,-0.0829,0.289,1.27
CG7139,DRSC11611,0.142,0.338,-0.0266
CG12540,DRSC19471,1,0.585,
EbpII (Ejaculatory bulb protein II),DRSC04637,0.484,-0.183,
EbpII (Ejaculatory bulb protein II),DRSC22484,-0.00527,-1.78,
Cpr64Aa (Cuticular protein 64Aa),DRSC08460,0.26,1.31,
